Results reported in PubChem BioAssay AID588590 (National Center for Advancing Translational Sciences (NCATS), 2011).
About 4,000 (1%) of roughly 390,000 compounds were called active. Inconclusive results, whose numbers are uncertain, are shown with a selection of clear calls. The call rests on the fitted dose curve; in most records, active means well fitted inhibition curve with a large enough effect; inconclusive means small, poorly fitted or top-dose-only effect, or another doubt; inactive means no such curve, though single readings can be large or run the other way. Where the call is inconclusive, the potency comes from a doubtful curve fit.

By UniProt entry, the sequences of proteins in these tests, tags left out. Where a name states a change or a piece, a line headed by the entry shows the natural chain unless it says otherwise.
UniProt Q9UNA4: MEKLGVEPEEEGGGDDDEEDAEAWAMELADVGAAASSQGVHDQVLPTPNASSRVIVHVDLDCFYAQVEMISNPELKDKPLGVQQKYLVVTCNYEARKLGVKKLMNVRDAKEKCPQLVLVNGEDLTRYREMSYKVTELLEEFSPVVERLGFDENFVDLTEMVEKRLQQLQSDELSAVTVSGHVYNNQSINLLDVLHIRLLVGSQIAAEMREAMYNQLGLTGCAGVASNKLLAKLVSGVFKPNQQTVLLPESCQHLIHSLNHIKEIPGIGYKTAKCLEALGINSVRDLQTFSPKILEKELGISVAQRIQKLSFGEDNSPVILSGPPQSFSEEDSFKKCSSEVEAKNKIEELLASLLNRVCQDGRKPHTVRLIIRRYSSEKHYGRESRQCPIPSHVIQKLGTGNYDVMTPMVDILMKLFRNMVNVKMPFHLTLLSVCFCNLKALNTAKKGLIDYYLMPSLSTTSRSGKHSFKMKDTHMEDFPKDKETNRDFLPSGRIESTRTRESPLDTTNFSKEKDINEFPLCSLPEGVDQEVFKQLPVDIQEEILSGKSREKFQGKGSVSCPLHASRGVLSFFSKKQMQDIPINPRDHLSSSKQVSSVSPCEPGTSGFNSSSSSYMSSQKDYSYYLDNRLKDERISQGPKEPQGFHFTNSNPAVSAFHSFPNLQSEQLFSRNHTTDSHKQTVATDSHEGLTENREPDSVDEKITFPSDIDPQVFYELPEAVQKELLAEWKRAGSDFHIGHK

What follows are compounds tested against DNA polymerase iota (Homo sapiens) (UniProt Q9UNA4) (assay: qHTS for Inhibitors of Polymerase Iota). Conditions: Pol iota fluorescent replication assay, 10 min; series mostly up to 115 µM; activity, negative = inhibition: at the top concentration.
How it was run: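 Pol iota at 10 nM preincubated 15 min with compounds at room temperature; reaction started with fluorescent substrate, 50 nM final. Fluorescence read kinetically at 0 and 10 min; buffer-only wells as negative control.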
Potency means the concentration at half of the fitted maximal effect.

SMILES	Potency	activity, negative = inhibition
Cc1ccn2c(-c3csc(NCc4ccco4)n3)c(C)nc2c1	inconclusive: 35.5 µM [inhibitor, partial curve, poor fit]	
C[C@@H](NC(=O)[C@@H]1Cc2ccccc2CN1)C(=O)NC1CCCCC1	inconclusive: 89.1 µM [inhibitor, single point]	
CCc1ccccc1NC(=O)Cn1c(=O)n(-c2ccc(C)c(C)c2)c(=O)c2oc3ccccc3c21		inactive: -1.96%
N#Cc1sc2nc(-c3ccccc3)cc(C(F)(F)F)c2c1N	inconclusive: 100 µM [inhibitor, single point]	
COc1cc(OC)c(NC(=O)NCc2cccn2Cc2ccccc2)cc1Cl		inactive: -2.09%
CCOC(=O)c1ccc(NC(=O)CCc2c(C)nc3c(c(C)nn3C(C)(C)C)c2C)cc1	inconclusive: 89.1 µM [inhibitor, single point]	
S=c1[nH]nc(-c2ccncc2)n1/N=C/C=C/c1ccco1	inconclusive: 17.8 µM [inhibitor, full curve, poor fit]	
O=C(COC(=O)c1ccc(NS(=O)(=O)c2ccc(F)c(F)c2)cc1)NCC1CCCO1 (centres undefined)		inactive: 12.9%
O=C(c1cccc(NS(=O)(=O)c2ccc(F)cc2)c1)N1CCN(c2ccccc2)CC1	inconclusive: 56.2 µM [inhibitor, partial curve]	
CN(C)S(=O)(=O)c1cc(C(=O)Nc2ccccc2C(=O)NC2CC2)ccc1Cl	inconclusive: 79.4 µM [inhibitor, single point]	
COC(=O)c1ccc(NC(=O)CCN2CCN(c3ccccc3)CC2)cc1	inconclusive: 39.8 µM [inhibitor, partial curve, poor fit]	
O=C(CCN1C(=O)c2ccccc2C1=O)NCc1ccco1	active: 50.1 µM	
O=S(=O)(Nc1ccc(-c2ccc(N3CCCC3)nn2)cc1)c1ccc(OC(F)(F)F)cc1		inactive: -5.97%
COc1cccc(CNc2ccc(N3CCC(C)CC3)cc2)c1OC	inconclusive: 28.2 µM [inhibitor, single point]	
CCCCCOC(=O)c1[nH]c2c(c1C)C(=O)CC(c1ccco1)C2 (centres undefined)	inconclusive: 50.1 µM [inhibitor, partial curve, poor fit]	
CC1=CC(=O)c2ccccc2C1=O	inconclusive: 14.1 µM [inhibitor, partial curve]	
C/C(=N\Nc1nnc(C)c(=O)[nH]1)C(=O)O	inconclusive: 3.55 µM [inhibitor, partial curve, poor fit]	
COc1cc(OC)cc(C(=O)Nc2ccc(NC(=O)c3ccco3)c(Cl)c2)c1	active: 25.1 µM	
O=C1CC(C(=O)Nc2cccc3ccccc23)C2(CCCC2)O1 (centres undefined)	inconclusive: 112 µM [inhibitor, single point]	
COc1ccc(C(=O)n2cnc(N)n2)cc1	inconclusive: 89.1 µM [inhibitor, single point]	
COc1ccc(-c2cc(-c3ccccc3)nc(N)n2)c(O)c1	inconclusive: 100 µM [inhibitor, partial curve, poor fit]	
Cc1cccc2c1N(CCCOc1ccc(C(C)(C)C)cc1)C(=O)C2=O	inconclusive: 20 µM [inhibitor, partial curve, poor fit]	

SMILES	Potency	activity, negative = inhibition
N=C(N)SCc1ccccn1		inactive: 12.9%
CN(C)c1ccc2ccc3cccc4ccc1c2c34	inconclusive: 10 µM [inhibitor, partial curve, poor fit]	
Cc1ccc2cc(CN(CC(C)C)S(=O)(=O)c3ccccc3)c(=O)[nH]c2c1	inconclusive: 1.26 µM [inhibitor, full curve, poor fit]	
Clc1ccc(Nc2ncnc3c2cnn3-c2ccccc2)cc1		inactive: -13.8%
O=C1C=C(c2ccc(F)nc2)C[C@@H](c2ccc3c(c2)OCO3)C1		inactive: 19.9%
COc1ccc(N2CCN(CC(O)COc3cc(C)ccc3C)CC2)cc1 (centres undefined)	inconclusive: 14.1 µM [inhibitor, single point]	
O=C(Nc1ccccc1N1CCOCC1)c1cc(-c2ccco2)nc2ccccc12	inconclusive: 12.6 µM [inhibitor, full curve, poor fit]	
C#CCOCCOCCOCCNc1nc(N2CCN(C(=O)[C@H](CCCCN)n3cc(CN)nn3)CC2)nc(N2CCN(C(=O)[C@H](CO)n3cc([C@@H](N)C(C)C)nn3)CC2)n1	inconclusive: 44.7 µM [inhibitor, partial curve, poor fit]	
CCCc1cc(C(=O)Nc2ccc(F)c(Cl)c2)no1	inconclusive: 89.1 µM [inhibitor, single point]	
CCCOc1ccc(Cc2nn3c(=O)/c(=C/c4ccco4)sc3nc2=O)cc1	active: 6.31 µM	
O=C(CN1C(=O)CCC1=O)Nc1nc2c(F)cc(F)cc2s1		inactive: 6.81%
C=CCNC(=S)NNc1nc2c(c(=O)[nH]1)C1(CCCC1)Cc1ccccc1-2	inconclusive: 1.78 µM [inhibitor, partial curve, poor fit]	
CC1C(=O)Nc2ccc(S(=O)(=O)NCCc3ccc(Cl)cc3)cc2NC1=O (centres undefined)	inconclusive: 22.4 µM [inhibitor, partial curve, poor fit]	
COc1ccc(CNC(=O)CSc2ccsc2[N+](=O)[O-])cc1	inconclusive: 63.1 µM [inhibitor, single point]	
Cc1c(-c2ccccc2)n(-c2ccccc2O)c2nc3c(c(=O)n(C)c(=O)n3C)n12	inconclusive: 79.4 µM [inhibitor, single point]	
Cc1ccc(C(=O)Nc2ccc(C(=O)OCc3cc(=O)n4c5c(sc4n3)CCCC5)cc2)cc1		inactive: 21%
O=C(NCCNc1ccc([N+](=O)[O-])cc1C(F)(F)F)c1ccccc1F	inconclusive: 112 µM [inhibitor, single point]	
Cc1ccc(S(=O)(=O)Cn2nnnc2C(CC(C)C)N2CCN(c3ccccc3)CC2)cc1 (centres undefined)	inconclusive: 28.2 µM [inhibitor, single point]	
CC[n+]1c(/C=C/c2c[nH]c3ccccc23)ccc2cc(C)ccc21	inconclusive: 15.8 µM [inhibitor, partial curve, poor fit]	
O=C(OCc1cc(=O)n2nc(-c3cccs3)sc2n1)c1ccccc1Br	inconclusive: 89.1 µM [inhibitor, single point]	
COc1cccc(OCC(=O)NN=C2c3ccccc3-c3ccccc32)c1	inconclusive: 12.6 µM [inhibitor, partial curve]	
CCN(CC)C(=O)COc1ccc(N(C)S(=O)(=O)c2ccc(NC(C)=O)cc2)cc1		inactive: 13.9%

Part of the list above, field by field.
O=C(c1cccc(NS(=O)(=O)c2ccc(F)cc2)c1)N1CCN(c2ccccc2)CC1
  Potency: inconclusive: 56.2 µM [inhibitor, partial curve]
CCCOc1ccc(Cc2nn3c(=O)/c(=C/c4ccco4)sc3nc2=O)cc1
  Potency: active: 6.31 µM
CC[n+]1c(/C=C/c2c[nH]c3ccccc23)ccc2cc(C)ccc21
  Potency: inconclusive: 15.8 µM [inhibitor, partial curve, poor fit]

The results go on:

SMILES	Potency	activity, negative = inhibition
COc1ccc(CC(=O)NCc2nc(-c3ccccc3)no2)cc1		inactive: 37%
COCCNC(=O)CSc1ncnc2sccc12		inactive: 83.8%
Cc1ccnc(N/N=C/c2ccco2)n1	inconclusive: 100 µM [inhibitor, partial curve, poor fit]	
O=C(O)COc1cccc(NC(=O)c2ccccc2)c1	inconclusive: 79.4 µM [inhibitor, partial curve, poor fit]	
COc1ccccc1C1CN(c2ccccc2)N=C1c1cccs1 (centres undefined)		inactive: -2.13%
O=C(C1CC1)N1CCN(c2nc3c(F)cc(F)cc3s2)CC1	inconclusive: 2.24 µM [inhibitor, full curve, poor fit]	
O=C(Cn1nc(Cl)nc1Cl)c1ccc2c(c1)OCCO2	inconclusive: 14.1 µM [inhibitor, partial curve, poor fit]	
COC(=O)C1=C(C)C(c2ccc(OC)cc2OC)NC(=O)N1 (centres undefined)	inconclusive: 39.8 µM [inhibitor, partial curve, poor fit]	
Cc1ccc(NS(=O)(=O)c2ccc(C(=O)Nc3nncs3)cc2)cc1	inconclusive: 22.4 µM [inhibitor, single point]	
O=C(Oc1coc(CSc2nnc(NC(=O)C3CC3)s2)cc1=O)c1c(F)cccc1F	inconclusive: 44.7 µM [inhibitor, partial curve, poor fit]	
Cc1ccc(-n2c(C)nc3oc4ccccc4c(=O)c3c2=O)cc1	inconclusive: 20 µM [inhibitor, full curve]	
COc1ccc(NC(=O)CCS(=O)(=O)c2nc(-c3ccc4c(c3)OCO4)cc(C(F)(F)F)n2)c(OC)c1	inconclusive: 20 µM [inhibitor, partial curve]	
Cc1nc2ccccc2c(=O)n1/N=C/c1c(O)ccc2ccccc12	inconclusive: 50.1 µM [inhibitor, partial curve]	
NS(=O)(=O)c1ccc(NC(=O)COC(=O)c2cc3ccccc3cc2O)cc1	inconclusive: 89.1 µM [inhibitor, single point]	
CCOC(=O)[C@H]1[C@H]2COc3ccc(C)cc3[C@@H]2N2C(=O)c3ccc(Cl)cc3NC(=O)[C@@]12C	inconclusive: 56.2 µM [inhibitor, partial curve, poor fit]	
CCCN1CN(Cc2ccccc2)CC2=C1CC(C)(C)CC2=O	inconclusive: 35.5 µM [inhibitor, single point]	
N#Cc1c2ccccc2nc2ccccc12	inconclusive: 17.8 µM [inhibitor, partial curve, poor fit]	
C#CCOCCOCCOCCNc1nc(N2CCN(C(=O)C([C@@H](C)O)n3cc([C@@H](N)CCCCN)nn3)CC2)nc(N2CCN(C(=O)[C@H](CO)n3cc([C@@H](N)C(C)C)nn3)CC2)n1 (some centres undefined)	inconclusive: 17.8 µM [inhibitor, single point]	
CCOP(=O)(OCC)/C(=N/OC(=O)c1ccc(OC)cc1)C(N)=O	inconclusive: 12.6 µM [inhibitor, full curve, poor fit]	
Cc1ccc2nsnc2c1NC(=S)NC(=O)c1ccco1	inconclusive: 25.1 µM [inhibitor, partial curve, poor fit]	
